Results on one molecule are retold here after article doi:10.1101/717769.

Assay [1] addresses GST-fusion of the N-terminal half of Merlin containing the FERM domain. Description: pull-down.
For a further assay, the target named is Flag-Merlin isoform 2. Description: co-IP.

Results are given in words; binding and its absence hold for the method and conditions named. In cells and extracts the contact can be indirect. For some assays here: Binding calls can cover weak binding; strength is not graded here.

B1: TAT-SF1 (endogenous) (protein, UniProt O43719 1-755)
chain: MSGTNLDGNDEFDEQLRMQELYGDGKDGDTQTDAGGEPDSLGQQPTDTPYEWDLDKKAWFPKITEDFIATYQANYGFSNDGASSSTANVEDVHARTAEEPPQEKAPEPTDARKKGEKRKAESGWFHVEEDRNTNVYVSGLPPDITVDEFIQLMSKFGIIMRDPQTEEFKVKLYKDNQGNLKGDGLCCYLKRESVELALKLLDEDEIRGYKLHVEVAKFQLKGEYDASKKKKKCKDYKKKLSMQQKQLDWRPERRAGPSRMRHERVVIIKNMFHPMDFEDDPLVLNEIREDLRVECSKFGQIRKLLLFDRHPDGVASVSFRDPEEADYCIQTLDGRWFGGRQITAQAWDGTTDYQVEETSREREERLRGWEAFLNAPEANRGLRRSDSVSASERAGPSRARHFSEHPSTSKMNAQETATGMAFEEPIDEKKFEKTEDGGEFEEGASENNAKESSPEKEAEEGCPEKESEEGCPKRGFEGSCSQKESEEGNPVRGSEEDSPKKESKKKTLKNDCEENGLAKESEDDLNKESEEEVGPTKESEEDDSEKESDEDCSEKQSEDGSEREFEENGLEKDLDEEGSEKELHENVLDKELEENDSENSEFEDDGSEKVLDEEGSEREFDEDSDEKEEEEDTYEKVFDDESDEKEDEEYADEKGLEAADKKAEEGDADEKLFEESDDKEDEDADGKEVEDADEKLFEDDDSNEKLFDEEEDSSEKLFDDSDERGTLGGFGSVEEGPLSTGSSFILSSDDDDDDI
Turning to B1, the binding result is given as “no binding” in assay [1] and “binds” with Flag-Merlin isoform 2.
